Test results from the supplement of paper PMC12823440, “Inhibitors supercharge kinase turnover through native proteolytic circuits” (Nature, 2025).
The list shows a part of the results. Hit calls seldom repeat between salt and free forms of one compound.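 In K562 cells expressing nanoluciferase-fused kinases, luminescence was recorded at 4 h intervals between 2 and 18 h, normalized as percent of control with DMSO at 100% and a positive control at 0%. A significant (2 sigma) signal drop marks a time point as decreased. The authors' rule for a hit is not shown and takes in more than the number of time points.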

The chains behind the UniProt entries cited, without tags or fusion partners. Where a name states a change or a piece, a line headed by the entry shows the natural chain unless it says otherwise.
UniProt Q06187: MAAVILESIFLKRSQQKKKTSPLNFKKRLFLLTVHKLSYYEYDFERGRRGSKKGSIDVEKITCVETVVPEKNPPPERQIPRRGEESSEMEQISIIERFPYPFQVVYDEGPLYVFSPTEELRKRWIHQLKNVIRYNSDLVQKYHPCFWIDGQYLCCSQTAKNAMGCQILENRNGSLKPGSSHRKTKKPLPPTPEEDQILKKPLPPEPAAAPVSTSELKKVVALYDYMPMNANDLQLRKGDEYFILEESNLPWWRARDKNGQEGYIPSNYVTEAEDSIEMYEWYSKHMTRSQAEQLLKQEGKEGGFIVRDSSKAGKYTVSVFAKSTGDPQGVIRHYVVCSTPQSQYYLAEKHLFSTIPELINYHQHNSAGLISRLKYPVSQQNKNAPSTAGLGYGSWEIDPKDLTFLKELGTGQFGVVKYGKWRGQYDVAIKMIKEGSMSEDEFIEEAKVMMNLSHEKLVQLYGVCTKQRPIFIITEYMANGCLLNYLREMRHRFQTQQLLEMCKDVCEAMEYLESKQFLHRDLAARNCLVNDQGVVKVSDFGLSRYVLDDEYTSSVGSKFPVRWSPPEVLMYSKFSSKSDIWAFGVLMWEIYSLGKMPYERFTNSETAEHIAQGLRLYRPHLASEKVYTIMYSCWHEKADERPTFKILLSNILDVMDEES
UniProt Q13555: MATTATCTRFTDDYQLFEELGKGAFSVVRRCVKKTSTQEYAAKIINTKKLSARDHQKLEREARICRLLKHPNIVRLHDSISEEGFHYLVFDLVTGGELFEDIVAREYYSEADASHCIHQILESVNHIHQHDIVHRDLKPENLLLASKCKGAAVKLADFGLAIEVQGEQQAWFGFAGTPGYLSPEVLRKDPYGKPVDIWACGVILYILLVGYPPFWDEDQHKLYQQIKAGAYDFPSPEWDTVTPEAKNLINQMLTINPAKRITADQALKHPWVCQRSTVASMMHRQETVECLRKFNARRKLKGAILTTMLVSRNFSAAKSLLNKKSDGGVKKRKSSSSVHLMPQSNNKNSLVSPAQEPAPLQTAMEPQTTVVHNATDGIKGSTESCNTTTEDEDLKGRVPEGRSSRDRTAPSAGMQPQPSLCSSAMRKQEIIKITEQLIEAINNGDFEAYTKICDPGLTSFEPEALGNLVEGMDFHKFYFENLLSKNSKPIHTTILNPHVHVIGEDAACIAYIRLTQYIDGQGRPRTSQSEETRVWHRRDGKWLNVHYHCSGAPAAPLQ
UniProt Q15131: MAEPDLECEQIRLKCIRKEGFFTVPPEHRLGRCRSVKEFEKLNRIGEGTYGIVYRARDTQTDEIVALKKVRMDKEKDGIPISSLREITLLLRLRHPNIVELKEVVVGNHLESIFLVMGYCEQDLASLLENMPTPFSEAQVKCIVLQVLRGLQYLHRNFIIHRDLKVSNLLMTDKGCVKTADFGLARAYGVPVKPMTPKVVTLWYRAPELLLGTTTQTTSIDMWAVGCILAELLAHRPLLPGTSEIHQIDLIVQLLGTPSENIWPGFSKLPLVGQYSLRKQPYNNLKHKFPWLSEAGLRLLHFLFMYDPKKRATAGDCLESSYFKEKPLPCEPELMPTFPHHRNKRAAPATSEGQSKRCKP
UniProt Q00526: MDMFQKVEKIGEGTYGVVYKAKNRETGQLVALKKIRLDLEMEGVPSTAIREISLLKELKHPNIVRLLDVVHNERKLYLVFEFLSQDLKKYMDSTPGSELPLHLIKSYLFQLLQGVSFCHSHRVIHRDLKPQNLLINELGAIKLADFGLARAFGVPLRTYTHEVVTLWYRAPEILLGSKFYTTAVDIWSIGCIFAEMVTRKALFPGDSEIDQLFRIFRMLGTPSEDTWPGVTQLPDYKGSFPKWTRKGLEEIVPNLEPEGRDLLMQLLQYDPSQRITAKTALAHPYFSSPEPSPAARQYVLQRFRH
UniProt P11802: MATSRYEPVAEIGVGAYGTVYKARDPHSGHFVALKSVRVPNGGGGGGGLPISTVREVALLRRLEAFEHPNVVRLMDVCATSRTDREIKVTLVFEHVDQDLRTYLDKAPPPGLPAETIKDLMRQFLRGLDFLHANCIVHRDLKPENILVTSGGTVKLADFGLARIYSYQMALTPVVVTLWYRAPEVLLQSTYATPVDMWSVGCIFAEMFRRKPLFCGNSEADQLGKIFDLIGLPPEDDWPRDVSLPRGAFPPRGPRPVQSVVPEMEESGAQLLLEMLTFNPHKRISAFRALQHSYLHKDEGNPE
UniProt Q00535, whole entry, looked up: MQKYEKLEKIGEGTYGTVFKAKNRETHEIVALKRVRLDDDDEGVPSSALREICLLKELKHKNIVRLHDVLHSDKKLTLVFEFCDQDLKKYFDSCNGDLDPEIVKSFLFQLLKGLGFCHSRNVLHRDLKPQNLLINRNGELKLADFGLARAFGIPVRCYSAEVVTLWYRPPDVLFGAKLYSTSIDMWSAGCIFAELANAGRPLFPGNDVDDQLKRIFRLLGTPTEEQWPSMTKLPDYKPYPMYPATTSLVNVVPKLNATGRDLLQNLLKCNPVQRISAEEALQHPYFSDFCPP
UniProt Q00534, whole entry: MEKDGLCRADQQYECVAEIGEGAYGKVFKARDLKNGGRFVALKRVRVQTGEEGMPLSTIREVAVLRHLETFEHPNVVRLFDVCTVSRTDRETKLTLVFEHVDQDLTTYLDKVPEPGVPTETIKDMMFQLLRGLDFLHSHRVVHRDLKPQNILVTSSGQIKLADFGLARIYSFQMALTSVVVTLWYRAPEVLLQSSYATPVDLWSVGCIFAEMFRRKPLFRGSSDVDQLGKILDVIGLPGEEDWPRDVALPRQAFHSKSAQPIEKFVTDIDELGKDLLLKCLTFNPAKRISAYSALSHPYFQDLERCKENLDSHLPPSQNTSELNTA
UniProt P50613: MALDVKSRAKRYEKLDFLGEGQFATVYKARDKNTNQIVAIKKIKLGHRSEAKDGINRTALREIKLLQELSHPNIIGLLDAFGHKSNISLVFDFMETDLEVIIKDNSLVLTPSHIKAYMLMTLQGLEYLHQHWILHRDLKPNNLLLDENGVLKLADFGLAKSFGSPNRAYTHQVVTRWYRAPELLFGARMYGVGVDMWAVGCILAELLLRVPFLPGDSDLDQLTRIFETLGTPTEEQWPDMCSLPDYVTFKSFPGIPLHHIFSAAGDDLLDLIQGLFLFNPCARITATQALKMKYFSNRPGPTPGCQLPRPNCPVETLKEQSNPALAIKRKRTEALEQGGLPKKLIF
UniProt O96017, whole entry: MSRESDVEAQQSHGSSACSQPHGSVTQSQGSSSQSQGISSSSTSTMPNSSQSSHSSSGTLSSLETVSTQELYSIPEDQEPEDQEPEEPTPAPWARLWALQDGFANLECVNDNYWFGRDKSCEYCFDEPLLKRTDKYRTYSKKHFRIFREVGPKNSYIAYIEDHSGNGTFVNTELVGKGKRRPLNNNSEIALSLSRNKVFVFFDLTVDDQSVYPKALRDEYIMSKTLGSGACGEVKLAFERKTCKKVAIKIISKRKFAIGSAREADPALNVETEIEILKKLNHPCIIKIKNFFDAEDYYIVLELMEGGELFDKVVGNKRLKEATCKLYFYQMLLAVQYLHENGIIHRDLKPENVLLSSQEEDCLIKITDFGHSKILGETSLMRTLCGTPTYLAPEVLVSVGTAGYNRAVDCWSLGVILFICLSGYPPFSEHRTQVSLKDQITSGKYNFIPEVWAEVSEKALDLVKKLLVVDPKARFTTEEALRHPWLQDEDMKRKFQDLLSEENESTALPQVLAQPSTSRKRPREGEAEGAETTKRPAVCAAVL
UniProt P07333, whole entry: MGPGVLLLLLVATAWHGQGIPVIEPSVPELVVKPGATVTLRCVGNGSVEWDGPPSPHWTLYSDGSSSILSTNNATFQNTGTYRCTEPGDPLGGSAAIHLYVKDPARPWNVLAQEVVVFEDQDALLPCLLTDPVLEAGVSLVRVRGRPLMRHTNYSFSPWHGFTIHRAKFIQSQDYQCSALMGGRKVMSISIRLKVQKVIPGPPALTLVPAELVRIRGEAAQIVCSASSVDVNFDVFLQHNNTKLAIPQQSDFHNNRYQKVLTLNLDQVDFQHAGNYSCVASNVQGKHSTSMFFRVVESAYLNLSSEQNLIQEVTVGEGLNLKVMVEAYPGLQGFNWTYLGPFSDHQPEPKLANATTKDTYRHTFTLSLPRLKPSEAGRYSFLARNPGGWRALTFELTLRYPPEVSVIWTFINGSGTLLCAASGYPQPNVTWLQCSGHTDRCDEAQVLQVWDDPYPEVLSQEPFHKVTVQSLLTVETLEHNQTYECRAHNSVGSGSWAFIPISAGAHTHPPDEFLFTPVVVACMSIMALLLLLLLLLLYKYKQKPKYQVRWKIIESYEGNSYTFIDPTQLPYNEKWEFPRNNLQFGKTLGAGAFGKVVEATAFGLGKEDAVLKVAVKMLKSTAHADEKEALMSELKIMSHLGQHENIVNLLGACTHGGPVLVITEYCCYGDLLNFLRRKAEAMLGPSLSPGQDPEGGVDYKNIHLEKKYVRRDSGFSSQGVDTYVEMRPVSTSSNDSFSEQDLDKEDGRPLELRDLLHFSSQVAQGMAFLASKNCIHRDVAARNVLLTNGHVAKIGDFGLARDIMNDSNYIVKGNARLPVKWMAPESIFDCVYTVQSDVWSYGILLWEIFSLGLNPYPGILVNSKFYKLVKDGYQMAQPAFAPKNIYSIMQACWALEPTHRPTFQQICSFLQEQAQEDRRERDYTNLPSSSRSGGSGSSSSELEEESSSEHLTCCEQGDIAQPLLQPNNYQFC
UniProt P41240: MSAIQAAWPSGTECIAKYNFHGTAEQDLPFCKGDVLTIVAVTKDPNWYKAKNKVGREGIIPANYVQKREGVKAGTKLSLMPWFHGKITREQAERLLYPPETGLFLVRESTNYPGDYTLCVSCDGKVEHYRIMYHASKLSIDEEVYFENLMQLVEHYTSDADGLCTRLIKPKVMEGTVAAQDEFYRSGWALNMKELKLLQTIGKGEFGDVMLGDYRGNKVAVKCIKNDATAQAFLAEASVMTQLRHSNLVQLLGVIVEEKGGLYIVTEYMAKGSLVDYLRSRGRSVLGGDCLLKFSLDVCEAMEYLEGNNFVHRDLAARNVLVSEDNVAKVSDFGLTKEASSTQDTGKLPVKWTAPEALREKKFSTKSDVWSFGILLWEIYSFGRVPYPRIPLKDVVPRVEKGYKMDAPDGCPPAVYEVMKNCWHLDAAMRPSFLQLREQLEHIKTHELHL
UniProt Q9Y463, whole entry, looked up: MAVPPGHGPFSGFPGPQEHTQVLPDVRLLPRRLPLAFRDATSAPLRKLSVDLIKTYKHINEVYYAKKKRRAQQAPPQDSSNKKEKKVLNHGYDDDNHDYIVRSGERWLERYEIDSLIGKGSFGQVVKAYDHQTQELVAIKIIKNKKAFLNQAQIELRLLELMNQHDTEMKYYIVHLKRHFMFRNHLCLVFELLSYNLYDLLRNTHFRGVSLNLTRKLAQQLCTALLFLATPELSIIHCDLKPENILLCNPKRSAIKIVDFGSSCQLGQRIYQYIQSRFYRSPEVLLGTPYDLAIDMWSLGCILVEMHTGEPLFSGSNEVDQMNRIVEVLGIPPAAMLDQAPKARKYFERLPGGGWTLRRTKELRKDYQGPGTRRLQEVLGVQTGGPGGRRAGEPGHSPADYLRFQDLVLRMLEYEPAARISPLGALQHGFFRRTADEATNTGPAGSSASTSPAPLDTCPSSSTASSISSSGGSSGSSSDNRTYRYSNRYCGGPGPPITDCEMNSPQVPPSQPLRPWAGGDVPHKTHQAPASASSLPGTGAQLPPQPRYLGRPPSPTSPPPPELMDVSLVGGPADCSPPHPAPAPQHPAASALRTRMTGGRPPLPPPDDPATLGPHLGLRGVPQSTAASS
UniProt Q92630: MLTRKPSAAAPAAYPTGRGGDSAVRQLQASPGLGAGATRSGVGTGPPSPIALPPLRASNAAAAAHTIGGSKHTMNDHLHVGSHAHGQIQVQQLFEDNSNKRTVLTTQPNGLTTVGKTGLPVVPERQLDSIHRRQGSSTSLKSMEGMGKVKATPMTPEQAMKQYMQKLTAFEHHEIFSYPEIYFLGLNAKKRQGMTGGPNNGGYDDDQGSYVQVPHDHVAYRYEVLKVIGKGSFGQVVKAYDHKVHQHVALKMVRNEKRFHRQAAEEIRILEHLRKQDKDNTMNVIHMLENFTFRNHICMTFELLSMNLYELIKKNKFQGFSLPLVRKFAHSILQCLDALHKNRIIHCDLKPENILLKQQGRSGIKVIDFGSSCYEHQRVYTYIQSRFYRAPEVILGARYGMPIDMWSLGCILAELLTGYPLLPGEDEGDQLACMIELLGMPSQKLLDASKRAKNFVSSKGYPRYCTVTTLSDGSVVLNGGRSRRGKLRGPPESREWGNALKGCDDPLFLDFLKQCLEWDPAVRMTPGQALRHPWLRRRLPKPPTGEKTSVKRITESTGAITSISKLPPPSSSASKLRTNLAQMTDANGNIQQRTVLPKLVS

Columns and labels:
Assay in all cases: kinase-Nluc reporter destabilization hit call (1 = scored as downregulated) (binary); higher = compound decreases kinase abundance
Conditions in all cases: K562; 2-18 h
BRAF_V600E = system: BRAF_V600E
BTK = BTK (UniProt Q06187)
CAMK2A = CAMK2A (UniProt Q9UQM7)
CAMK2G = CAMK2G (UniProt Q13555)
CDK10 = CDK10 (UniProt Q15131)
CDK2 = CDK2 (UniProt P24941)
CDK3 = CDK3 (UniProt Q00526)
CDK4 = CDK4 (UniProt P11802)
CDK5 = CDK5 (UniProt Q00535)
CDK6 = CDK6 (UniProt Q00534)
CDK7 = CDK7 (UniProt P50613)
CDK9 = CDK9 (UniProt P50750)
CHEK2 = CHEK2 (UniProt O96017)
CSF1R = CSF1R (UniProt P07333)
CSK = CSK (UniProt P41240)
CSNK1A1 = CSNK1A1 (UniProt P48729)
CSNK1D = CSNK1D (UniProt P48730)
DDR1 = DDR1 (UniProt Q08345)
DYRK1B = DYRK1B (UniProt Q9Y463)
DYRK2 = DYRK2 (UniProt Q92630)

Measured: kinase-Nluc reporter destabilization hit call

Cc1csc(-c2nnc(Nc3ccc(Oc4ncccc4-c4ccnc(N)n4)cc3)c3ccccc23)c1 (2.5 µM)
inactive: BRAF_V600E 0 | BTK 0 | CAMK2A 0 | CAMK2G 0 | CDK10 = 0 | CDK2 = 0 | CDK3 = 0 | CDK4 = 0 | CDK5 = 0 | CDK6 = 0 | CDK7 = 0 | CDK9 = 0 | CHEK2 = 0 | CSF1R 0 | CSK 0 | CSNK1A1 = 0 | CSNK1D 0 | DDR1 = 0 | DYRK1B 0 | DYRK2 = 0

CCOc1cc(C(=O)N2CCC(N3CCN(C)CC3)CC2)ccc1Nc1ncc2c(n1)N(C1CCCC1)c1ccccc1C(=O)N2C (10 µM)
inactive: BRAF_V600E 0 | BTK 0 | CAMK2A 0 | CAMK2G 0 | CDK10 = 0 | CDK2 = 0 | CDK3 = 0 | CDK4 = 0 | CDK5 = 0 | CDK6 = 0 | CDK7 = 0 | CDK9 = 0 | CHEK2 = 0 | CSF1R 0 | CSK 0 | CSNK1A1 = 0 | CSNK1D 0 | DDR1 = 0 | DYRK1B 0 | DYRK2 = 0

O=C(Nc1ccc(F)cc1F)[C@H](NC(=S)Nc1cc(C(F)(F)F)cc(C(F)(F)F)c1)c1ccccc1 (2.5 µM)
inactive: BRAF_V600E 0 | BTK 0 | CAMK2A 0 | CAMK2G 0 | CDK10 = 0 | CDK2 = 0 | CDK3 = 0 | CDK4 = 0 | CDK5 = 0 | CDK6 = 0 | CDK7 = 0 | CDK9 = 0 | CHEK2 = 0 | CSF1R 0 | CSK 0 | CSNK1A1 = 0 | CSNK1D 0 | DDR1 = 0 | DYRK1B 0 | DYRK2 = 0

NCc1ccc(Nc2ncc(F)c(Nc3ccccc3)n2)cc1 (10 µM)
inactive: BRAF_V600E 0 | BTK 0 | CAMK2A 0 | CAMK2G 0 | CDK10 = 0 | CDK2 = 0 | CDK3 = 0 | CDK4 = 0 | CDK5 = 0 | CDK6 = 0 | CDK7 = 0 | CDK9 = 0 | CHEK2 = 0 | CSF1R 0 | CSK 0 | CSNK1A1 = 0 | CSNK1D 0 | DDR1 = 0 | DYRK1B 0 | DYRK2 = 0

Cc1cc(Nc2cc3ncccc3c(N[C@@H]3C[C@H]4CC[C@@H](C3)N4CCC#N)n2)n[nH]1 [Izencitinib] (10 µM)
inactive: BRAF_V600E 0 | BTK 0 | CAMK2A 0 | CAMK2G 0 | CDK10 = 0 | CDK2 = 0 | CDK3 = 0 | CDK4 = 0 | CDK5 = 0 | CDK6 = 0 | CDK7 = 0 | CDK9 = 0 | CHEK2 = 0 | CSF1R 0 | CSK 0 | CSNK1A1 = 0 | CSNK1D 0 | DDR1 = 0 | DYRK1B 0 | DYRK2 = 0

Fc1ccc(-c2nc(-c3c(F)cccc3F)[nH]c2-c2ccncc2)cc1 (10 µM)
inactive: BRAF_V600E 0 | BTK 0 | CAMK2A 0 | CAMK2G 0 | CDK10 = 0 | CDK2 = 0 | CDK3 = 0 | CDK4 = 0 | CDK5 = 0 | CDK6 = 0 | CDK7 = 0 | CDK9 = 0 | CHEK2 = 0 | CSF1R 0 | CSK 0 | CSNK1A1 = 0 | CSNK1D 0 | DDR1 = 0 | DYRK1B 0 | DYRK2 = 0

Gathered by group: the compounds so far containing sulfur.
Cc1csc(-c2nnc(Nc3ccc(Oc4ncccc4-c4ccnc(N)n4)cc3)c3ccccc23)c1 (2.5 µM)
inactive: BRAF_V600E 0 | BTK 0 | CAMK2A 0 | CAMK2G 0 | CDK10 = 0 | CDK2 = 0 | CDK3 = 0 | CDK4 = 0 | CDK5 = 0 | CDK6 = 0 | CDK7 = 0 | CDK9 = 0 | CHEK2 = 0 | CSF1R 0 | CSK 0 | CSNK1A1 = 0 | CSNK1D 0 | DDR1 = 0 | DYRK1B 0 | DYRK2 = 0

O=C(Nc1ccc(F)cc1F)[C@H](NC(=S)Nc1cc(C(F)(F)F)cc(C(F)(F)F)c1)c1ccccc1 (2.5 µM)
inactive: BRAF_V600E 0 | BTK 0 | CAMK2A 0 | CAMK2G 0 | CDK10 = 0 | CDK2 = 0 | CDK3 = 0 | CDK4 = 0 | CDK5 = 0 | CDK6 = 0 | CDK7 = 0 | CDK9 = 0 | CHEK2 = 0 | CSF1R 0 | CSK 0 | CSNK1A1 = 0 | CSNK1D 0 | DDR1 = 0 | DYRK1B 0 | DYRK2 = 0

Following part

O=C(O)c1cc(O)ccc1O [2,5-Dihydroxybenzoic acid] (10 µM)
inactive: BRAF_V600E 0 | BTK 0 | CAMK2A 0 | CAMK2G 0 | CDK10 = 0 | CDK2 = 0 | CDK3 = 0 | CDK4 = 0 | CDK5 = 0 | CDK6 = 0 | CDK7 = 0 | CDK9 = 0 | CHEK2 = 0 | CSF1R 0 | CSK 0 | CSNK1A1 = 0 | CSNK1D 0 | DDR1 = 0 | DYRK1B 0 | DYRK2 = 0

CC(=NNC(=O)c1ccc(C)c(Br)c1)c1ccc(O)cc1O [mTOR inhibitor-1] (2.5 µM)
inactive: BRAF_V600E 0 | BTK 0 | CAMK2A 0 | CAMK2G 0 | CDK10 = 0 | CDK2 = 0 | CDK3 = 0 | CDK4 = 0 | CDK5 = 0 | CDK6 = 0 | CDK7 = 0 | CDK9 = 0 | CHEK2 = 0 | CSF1R 0 | CSK 0 | CSNK1A1 = 0 | CSNK1D 0 | DDR1 = 0 | DYRK1B 0 | DYRK2 = 0

COCCOc1cnc(Sc2cc(C)c(-c3csc(NC(=O)c4ccncc4)n3)c(C)c2)cn1 [T-1101 (tosylate)] (2.5 µM)
inactive: BRAF_V600E 0 | BTK 0 | CAMK2A 0 | CAMK2G 0 | CDK10 = 0 | CDK2 = 0 | CDK3 = 0 | CDK4 = 0 | CDK5 = 0 | CDK6 = 0 | CDK7 = 0 | CDK9 = 0 | CHEK2 = 0 | CSF1R 0 | CSK 0 | CSNK1A1 = 0 | CSNK1D 0 | DDR1 = 0 | DYRK1B 0 | DYRK2 = 0

CS(=O)(=O)c1ccc(-c2cnc(N)c(C(=O)Nc3ccccc3)n2)cc1 (10 µM)
inactive: BRAF_V600E 0 | BTK 0 | CAMK2A 0 | CAMK2G 0 | CDK10 = 0 | CDK2 = 0 | CDK3 = 0 | CDK4 = 0 | CDK5 = 0 | CDK6 = 0 | CDK7 = 0 | CDK9 = 0 | CHEK2 = 0 | CSF1R 0 | CSK 0 | CSNK1A1 = 0 | CSNK1D 0 | DDR1 = 0 | DYRK1B 0 | DYRK2 = 0

Nc1ncc(-c2cccc(N3CCNCC3)c2)cc1C(=O)Nc1ccncc1 [PKC-iota inhibitor 1] (10 µM)
inactive: BRAF_V600E 0 | BTK 0 | CAMK2A 0 | CAMK2G 0 | CDK10 = 0 | CDK2 = 0 | CDK3 = 0 | CDK4 = 0 | CDK5 = 0 | CDK6 = 0 | CDK7 = 0 | CDK9 = 0 | CHEK2 = 0 | CSF1R 0 | CSK 0 | CSNK1A1 = 0 | CSNK1D 0 | DDR1 = 0 | DYRK1B 0 | DYRK2 = 0

COCCO[C@@H]1[C@H](O)[C@@H](CO)O[C@H]1n1cnc2c(=O)[nH]c(N)nc21 [2′-O-(2-Methoxyethyl)guanosine] (10 µM)
inactive: BRAF_V600E 0 | BTK 0 | CAMK2A 0 | CAMK2G 0 | CDK10 = 0 | CDK2 = 0 | CDK3 = 0 | CDK4 = 0 | CDK5 = 0 | CDK6 = 0 | CDK7 = 0 | CDK9 = 0 | CHEK2 = 0 | CSF1R 0 | CSK 0 | CSNK1A1 = 0 | CSNK1D 0 | DDR1 = 0 | DYRK1B 0 | DYRK2 = 0

O=C(Nc1ccc2[nH]nc(-c3ccncc3)c2c1)[C@@H]1CCN(CC(=O)N2CCN(c3ccc(-c4ncccn4)cc3)CC2)C1 (2.5 µM)
inactive: BRAF_V600E 0 | BTK 0 | CAMK2A 0 | CAMK2G 0 | CDK10 = 0 | CDK2 = 0 | CDK3 = 0 | CDK4 = 0 | CDK5 = 0 | CDK6 = 0 | CDK7 = 0 | CDK9 = 0 | CHEK2 = 0 | CSF1R 0 | CSK 0 | CSNK1A1 = 0 | CSNK1D 0 | DDR1 = 0 | DYRK1B 0 | DYRK2 = 0

COc1ccc(Cn2cc(C(=O)N=Nc3c(O)[nH]c4c(C)cccc34)nn2)cc1 [MARK4 inhibitor 1] (10 µM)
inactive: BRAF_V600E 0 | BTK 0 | CAMK2A 0 | CAMK2G 0 | CDK10 = 0 | CDK2 = 0 | CDK3 = 0 | CDK4 = 0 | CDK5 = 0 | CDK6 = 0 | CDK7 = 0 | CDK9 = 0 | CHEK2 = 0 | CSF1R 0 | CSK 0 | CSNK1A1 = 0 | CSNK1D 0 | DDR1 = 0 | DYRK1B 0 | DYRK2 = 0

CC[C@@]1(c2ccccc2)C2=C(CC(C)(C)CC2=O)Nc2[nH]ncc21 (10 µM)
inactive: BRAF_V600E 0 | BTK 0 | CAMK2A 0 | CAMK2G 0 | CDK10 = 0 | CDK2 = 0 | CDK3 = 0 | CDK4 = 0 | CDK5 = 0 | CDK6 = 0 | CDK7 = 0 | CDK9 = 0 | CHEK2 = 0 | CSF1R 0 | CSK 0 | CSNK1A1 = 0 | CSNK1D 0 | DDR1 = 0 | DYRK1B 0 | DYRK2 = 0

COc1ncc(-c2nc(N3CCOCC3)nc3c(CN4CCC(C(C)(C)O)CC4)cc(F)cc23)cc1NS(C)(=O)=O [Linperlisib] (10 µM)
inactive: BRAF_V600E 0 | BTK 0 | CAMK2A 0 | CAMK2G 0 | CDK10 = 0 | CDK2 = 0 | CDK3 = 0 | CDK4 = 0 | CDK5 = 0 | CDK6 = 0 | CDK7 = 0 | CDK9 = 0 | CHEK2 = 0 | CSF1R 0 | CSK 0 | CSNK1A1 = 0 | CSNK1D 0 | DDR1 = 0 | DYRK1B 0 | DYRK2 = 0

COc1ccc2[nH]cc(/C=C3\C(=O)Nc4ccc(NC(=O)CCN5CCCCC5)cc43)c2c1 (2.5 µM)
inactive: BRAF_V600E 0 | BTK 0 | CAMK2A 0 | CAMK2G 0 | CDK10 = 0 | CDK2 = 0 | CDK3 = 0 | CDK4 = 0 | CDK5 = 0 | CDK6 = 0 | CDK7 = 0 | CDK9 = 0 | CHEK2 = 0 | CSF1R 0 | CSK 0 | CSNK1A1 = 0 | CSNK1D 0 | DDR1 = 0 | DYRK1B 0 | DYRK2 = 0
